These are yes or no findings as the source states them, for the method shown. Binding seen in cells or lysates may run through a third protein. Some entries that bind do so weakly or less than the wild type. Where a sequence is shown, tags or fusion partners need not be part of it.
Target: T1, GFP-dynamin I (UniProt Q05193)
T1 sequence: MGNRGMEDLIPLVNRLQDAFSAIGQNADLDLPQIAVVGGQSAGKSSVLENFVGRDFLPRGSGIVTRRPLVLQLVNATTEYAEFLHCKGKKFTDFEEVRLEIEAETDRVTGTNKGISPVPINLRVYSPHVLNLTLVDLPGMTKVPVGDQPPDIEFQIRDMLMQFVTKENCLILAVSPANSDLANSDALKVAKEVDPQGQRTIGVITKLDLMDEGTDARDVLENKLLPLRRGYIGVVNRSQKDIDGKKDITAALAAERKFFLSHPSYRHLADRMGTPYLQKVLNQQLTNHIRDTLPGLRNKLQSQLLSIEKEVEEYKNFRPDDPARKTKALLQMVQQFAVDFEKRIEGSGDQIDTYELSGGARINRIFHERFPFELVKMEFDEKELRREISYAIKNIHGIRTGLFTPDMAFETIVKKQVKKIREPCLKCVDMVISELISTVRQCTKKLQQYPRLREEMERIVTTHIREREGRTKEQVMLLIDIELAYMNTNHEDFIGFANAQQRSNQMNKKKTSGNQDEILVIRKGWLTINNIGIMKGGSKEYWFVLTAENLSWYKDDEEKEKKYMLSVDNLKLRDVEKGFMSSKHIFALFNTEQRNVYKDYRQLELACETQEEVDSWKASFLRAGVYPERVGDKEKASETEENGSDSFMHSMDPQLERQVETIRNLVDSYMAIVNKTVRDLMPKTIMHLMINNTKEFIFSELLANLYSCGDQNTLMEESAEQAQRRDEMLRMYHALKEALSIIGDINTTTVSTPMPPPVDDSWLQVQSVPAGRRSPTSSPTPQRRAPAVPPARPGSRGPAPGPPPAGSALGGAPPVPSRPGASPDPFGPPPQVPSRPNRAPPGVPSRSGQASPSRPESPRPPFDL
Test: co-IP; Cos7 cells co-transfected with GFP-dynamin I and wild-type or mutant Myc-p130Cas, 24 h; lysis in modified RIPA buffer (50 mM Tris-HCl pH 7.4, 150 mM NaCl, 1% NP-40, 0.25% sodium deoxycholate); immunoprecipitation with anti-GFP, immunoblot with anti-Myc

binding: binds
B1: Myc-tagged p130Cas, wild type (protein, UniProt Q63767 1-968)
chain: MKYLVSVGAGPARRAGGLEDVSWGPRVSRRPQSYRAARHVNESLPRSAFRVPAAHGASVTPSAALGSGLPETQPEAVCRGTEKPRFAEGCKPAASRDKNVLAKALYDNVAESPDELSFRKGDIMTVLERDTQGLDGWWLCSLHGRQGIVPGNRLKILVGMYDKKPAAPGPGPPATPPQPQPSLPQGVHTPVPPASQYSPMLPTAYQPQPDNVYLVPTPSKTQQGLYQAPGPNPQFQSPPAKQTSTFSKQTPHHSFPSPATDLYQVPPGPGSPAQDIYQVPPSAGTGHDIYQVPPSLDTRSWEGTKPPAKVVVPTRVGQGYVYEASQAEQDEYDTPRHLLAPGSQDIYDVPPVRGLLPNQYGQEVYDTPPMAVKGPNGRDPLLDVYDVPPSVEKGLPPSNHHSVYDVPPSVSKDVPDGPLLREETYDVPPAFAKPKPFDPTRHPLILAAPPPDSPPAEDVYDVPPPAPDLYDVPPGLRRPGPGTLYDVPRERVLPPEVADGSVIDDGVYAVPPPAEREAPTDGKRLSASSTGSTRSSQSASSLEVVVPGREPLELEVAVETLARLQQGVSTTVAHLLDLVGSASGPGGWRSTSEPQEPPVQDLKAAVAAVHGAVHELLEFARSAVSSATHTSDRTLHAKLSRQLQKMEDVYQTLVVHGQVLDSGRGGPGFTLDDLDRLVACSRAVPEDAKQLASFLHGNASLLFRRTKAPGPGPEGSSSLHLNPTDKASSIQSRPLPSPPKFTSQDSPDGQYENSEGGWMEDYDYVHLQGKEEFEKTQKELLEKGNIVRQGKGQLELQQLKQFERLEQEVSRPIDHDLANWTPAQPLVPGRTGGLGPSDRQLLLFYLEQCEANLTTLTDAVDAFFTAVATNQPPKIFVAHSKFVILSAHKLVFIGDTLSRQAKAADVRSKVTHYSNLLCDLLRGIVATTKAAALQYPSPSAAQDMVDRVKELGHSTQQFRRVLGQLAAA

Source: paper PMC3097230
